In patent publication US20210346665A1, “CONDUCTIVE MICRONEEDLE PATCH FOR ACTIVE AGENT DELIVERY” (Singapore Health Services Pte Ltd, priority 2018, published 2021):
Some entries share one result that the patent states for a list of compounds.

Assay: drug loading and release from MeHA MN patches in PBS
Format: physicochemical
Settings: 1×PBS, within 30 minutes
Method: The drug loading capabilities of MeHA MNs was investigated by using model drugs of different molecular weights, mainly fluorescein isothiocyanate (FITC), FITC-Dextran and doxorubicin hydrochloride (Dox). The innate ability of the MeHA MN arrays to absorb fluid is taken advantage of to load the drug molecules into the MN tips. All three drugs are dissolved in PBS which were then used to equilibrate MeHA MN patches. After 10 minutes of incubation with the drug solution, the MNs were left to dry in the fumehood (FIG. 14). The amount of drug encapsulated in the MN was determined by immersing the drug loaded MeHA in 1×PBS. By obtaining a 50 μL of the solution at various time points, the fluorescence intensity was measured to determine the drug release profile of the three different drug molecules.
Next, the release profiles of drugs from the MeHA MN patches were examined.

For fluorescein isothiocyanate [FITC], the “released from the MN patches” value was “more than 80%”.
